Several values for one entry are separate records, joined by “and”; a condition that tells them apart may be missing. Identical values can stand only once. This is one part of the list. The main result of the screen is listed elsewhere. These columns were measured beside it and carry no call. Most of these compounds were active or inconclusive in the main read-out, so they are no random draw. The note in brackets gives the kind of curve behind each potency; many fits are weak.
Assay: Cell signaling CRE-BLA (Fsk stim)
Details: CHO CRE-bla reporter (cAMP response element driving beta-lactamase), forskolin EC10, beta-lactamase ratio; measured here: 460 nm blue channel
How it was run: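 Modulation of forskolin-driven signalling is measured in CHO cells carrying a CRE-controlled beta-lactamase reporter. Cells are stimulated with EC10 NKH 477 in the presence of titrated compound for 3 h at 37 °C, then loaded with CCF4 for 2 h at room temperature.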

SMILES | AC50
c1nc2sc3c(c2c2nnnn12)CCCC3 | 0.2 µM [falling, full curve]
CCCCCC(=O)N(O)C1CC(=O)N(c2ccccc2)C1=O (configuration not stated) | 10 µM [falling, partial curve]
O=C1c2ccccc2-c2n[nH]c3cccc1c23 | 15.8 µM [rising, partial curve] and 5.01 µM [rising, full curve]
Cc1cc(Nc2ccc(F)cc2C)n2nc(C)nc2n1 | 10 µM [rising, partial curve]
COc1cccc(-c2nccc(-n3ccnc3)n2)c1 | 10 µM [rising, partial curve]
CCCc1nc2oc3c(NCCN(C)C)ncnc3c2c2c1CCCC2 | 6.31 µM [rising, partial curve]
Cc1ccc(C(=O)Nc2ccccc2N2CCN(C(=O)C(C)C)CC2)cc1C | 15.8 µM [falling, single point]
CC(C)[C@H](CO)Nc1nc(Nc2cc(N)cc(Cl)c2)c2ncn(C(C)C)c2n1 | 15.8 µM [falling, partial curve]
COc1cc2c(c(OC)c1OC)-c1ccc(OC)c(=O)cc1[C@@H](NC(C)=O)CC2 | 251 nM [rising, full curve] and 501 nM [rising, full curve] and 1.26 µM [rising, full curve]
CCc1nc(SCC(=O)N2CCC(C)CC2)c2c(=O)n(C)c(=O)n(C)c2n1 | 10 µM [rising, partial curve]
CCC(Sc1nc(-c2ccccc2)c(C#N)c(=O)[nH]1)C(=O)Nc1cc(C)on1 (configuration not stated) | 0.251 µM [falling, full curve]
COc1ccc(-c2cc(C(F)F)n3ncc(C(=O)NCCCN4CCCC4=O)c3n2)cc1 | 6.31 µM [rising, partial curve]
CO/C=C/C#CC1(O)CCN(C)CC1 | 3.16 µM [falling, partial curve]
COCCn1c(=O)c(-c2ccc(F)cc2)nc2cnc(N(C)C)nc21 | 2 µM [rising, full curve]
Cc1ccccc1-n1nc2c(c1NC(=O)c1cc3ccccc3oc1=O)CS(=O)C2 (configuration not stated) | 2 µM [rising, full curve]
Cc1oc(C(=O)Nc2ccc(O)cc2)cc1COc1ccccc1 | 25.1 µM [falling, single point]
COCCCn1c(=S)[nH]c2ncccc2c1=O | 0.1 µM [rising, full curve]
CCOc1ccc(-c2nc(CSCC(=O)N3CCN(c4cccc(OC)c4)CC3)c(C)o2)cc1 | 12.6 µM [falling, single point]
COc1cc(OC)c(-c2nnc(-c3ccc(OC)c(OC)c3OC)o2)cc1OC | 2 µM [rising, full curve]
COc1cc(OC)c(C(=O)Nc2ncn[nH]2)cc1OC | 10 µM [rising, partial curve]
Cc1cc(C)c(OCC(=O)Nc2cccc(NC(=O)c3ccco3)c2)c(Br)c1 | 0.631 µM [rising, single point]
COC(=O)c1nnn(-c2ccccc2)c1N | 0.251 µM [falling, partial curve]
CCOC(=O)c1c(NC(=O)c2nn(CC)cc2Br)c(C#N)nn1-c1ccccc1 | 10 µM [rising, partial curve]

SMILES | AC50
NS(=O)(=O)c1cc2c(cc1Cl)N[C@@H]([C@@H]1C[C@@H]3C=C[C@H]1C3)NS2(=O)=O | 31.6 µM [falling, single point]
O=S(=O)(c1cccc(-c2nnc(-c3cccnc3)o2)c1)N1CCCCC1 | 10 µM [rising, partial curve]
CC(C)CCn1c(SCC(=O)c2ccccc2)nc2c1c(=O)[nH]c(=O)n2C | 3.16 µM [rising, full curve, poor fit]
Cc1ccc(C)c(S(=O)(=O)C(C#N)c2nc3ccccc3nc2N2CCCC2)c1 (configuration not stated) | 25.1 µM [rising, single point]
Cc1c(-c2nc(N)nc(Nc3ccccc3)n2)oc2ccccc12 | 0.158 µM [rising, full curve]
N#Cc1ccccc1-c1ccc2ncnc(NC3CC3)c2c1 | 7.94 µM [rising, partial curve]
CCN(CC)S(=O)(=O)c1ccc(-c2nnc(SCC(=O)Nc3nc(C)cs3)o2)cc1 | 5.01 µM [falling, single point]
CCOc1cc(C)nc(NCCc2ccc(OC)c(OC)c2)n1 | 15.8 µM [rising, partial curve]
CCOc1ccc(OCC)c2sc(C)nc12 | 10 µM [rising, partial curve]
C/C(=C\c1ccco1)C1C(C#N)=C(N)Oc2n[nH]c(-c3ccccc3)c21 (configuration not stated) | 15.8 µM [falling, single point]
Cn1c(=O)c2c(SCC(=O)NCc3ccco3)nc(CC(C)(C)C)nc2n(C)c1=O | 12.6 µM [rising, partial curve]
CC1=C(C(=O)OCc2ccccc2)C(c2ccccc2OC(F)F)NC(=O)N1 (configuration not stated) | 0.00316 µM [falling, full curve, poor fit]
C=CC(=O)OCC(CO)(COC(=O)C=C)COC(=O)C=C | 2 µM [falling, full curve]
O=c1c2[nH]c3ccccc3c2ncn1Cc1ccccn1 | 10 µM [rising, partial curve]
CC(C)(C)OC(=O)NCCc1nnc(S(=O)(=O)Cc2ccc(Cl)cc2Cl)o1 | 0.794 µM [falling, full curve]
COc1ccc(-c2nc3cnc(N4CCNCC4)nc3n(C3CC3)c2=O)cc1 | 7.94 µM [rising, partial curve]
Cc1cccc2cc(CN(CC3CCCO3)C(=O)c3cccnc3)c3nnnn3c12 (configuration not stated) | 6.31 µM [rising, partial curve]
CCNc1ncc2nc(-c3cc(F)cc(F)c3)c(=O)n(CCOC)c2n1 | 2.51 µM [rising, full curve]
CC1(C)CC(=O)C2=C(C1)NC(=O)CC2c1ccccc1F (configuration not stated) | 10 µM [falling, partial curve]
O=C(NCc1nc2ccccc2[nH]1)c1cc2ccccc2oc1=O | 3.16 µM [rising, full curve]
N#Cc1nc(N2CCCC2)nc(N2CCCC2)n1 | 10 µM [rising, partial curve]
COc1ccc(-c2nc3cnc(OC)nc3n(CCc3ccccc3)c2=O)cc1 | 15.8 µM [rising, partial curve]
CCOC(=O)c1oc2ccccc2c1CN1CCOCC1 | 12.6 µM [rising, partial curve]

SMILES | AC50
CCOC(=O)NCc1ccc(CNC(=O)OCC)cc1 | 1 µM [rising, single point]
CCN1C(=O)c2cccc3c(NC(=O)c4cccc(N5C(=O)CCC5=O)c4)ccc1c23 | 7.94 µM [rising, partial curve]
CCOC(=O)CSc1nc(N)c(C#N)c(-c2ccc(OCC)cc2)c1C#N | 3.98 µM [rising, full curve, poor fit]
O=C(O)CCC(=O)N1CCc2cc(S(=O)(=O)NC3CCCc4ccccc43)ccc21 (configuration not stated) | 0.398 µM [falling, full curve]
CCOC(=O)c1c(C)[nH]c2cc(Br)c(O)cc12 | 10 µM [rising, partial curve]
Cc1nc2ncnn2c(Nc2ccc3c(c2)OCO3)c1Cc1ccccc1 | 25.1 µM [rising, single point]
O=C(c1ccccc1Cl)N1CCC(c2nc3c(nnn3Cc3ccco3)c(=O)[nH]2)CC1 | 10 µM [rising, partial curve]
Cc1ccc2[nH]c(=O)c(CNC(C)(C)C)cc2c1 | 1.58 µM [falling, single point]
Cn1c(=O)n(C/C=C/c2ccccc2)c(=O)c2c1nc1n2CCCN1c1ccc(F)cc1 | 6.31 µM [rising, partial curve]
Cc1nn(-c2ccccc2)c2[nH]c(=O)c(CNCc3ccc4c(c3)OCO4)cc12 | 25.1 µM [rising, single point]
CCOc1cc(NS(C)(=O)=O)c(OCC)cc1NC(=O)c1cccs1 | 20 µM [rising, single point]
COC(=O)c1cn(NC(=O)C2CCCCC2)c(=O)c2ccccc12 | 0.00398 µM [falling, full curve]
CCc1nc2ccccc2c(C(=O)OC2CCOC2=O)c1C (configuration not stated) | 20 µM [rising, single point]
CCOC(=O)C1=C(C)Nc2nc(SCc3cccnc3)nn2C1c1ccc(OC)cc1 (configuration not stated) | 15.8 µM [rising, partial curve]
COc1cccc(Cn2c(=O)c(C)nc3cnc(N4CCNCC4)nc32)c1 | 10 µM [rising, partial curve]
O=C(O)c1cc(-c2ccccc2)c(N2CCOCC2)s1 | 0.02 µM [falling, full curve, poor fit]
C/C(=N\O)C(=O)NCc1ccccn1 | 25.1 µM [falling, partial curve, poor fit]
CCSc1nnc(NC(=O)CSc2nc3c(c(=O)n2-c2ccccc2OC)SCC3)s1 | 10 µM [rising, partial curve]
COCCn1c(=O)c(-c2ccc(F)cc2)nc2cnc(OCc3ccccc3)nc21 | 25.1 µM [rising, single point]
COc1ccc2[nH]cc(CCNc3ccnc(-c4ccccc4Cl)n3)c2c1 | 2 µM [rising, partial curve]
Cc1onc(-c2ccccc2Cl)c1C(=O)Nc1ccc(-c2cn3cccnc3n2)cc1 | 0.02 µM [falling, full curve, poor fit]
